Laboratory results reported in patent EP0207497A2, “Quinolonecarboxylic acid derivative and process for its preparation” (KYORIN PHARMACEUTICAL CO., LTD., priority 1985, dated 1987).
In brackets after ≈: the same amount, converted by molar mass.

Key:
[1] = test system: Pseudomonas aeruginosa V-1; assay: Antibacterial spectrum, MIC determination (method of Japan Society of Chemotherapy); type: cell-based; settings: V1
[2] = test system: P. aeruginosa IFO 12689; assay: as above; type: cell-based; settings: Pseudomonas aeruginosa, IFO12689

O=C(O)c1cn(C2CC2)c2cc(N3CCNCC3)c(F)cc2c1=O [CPFX, ciprofloxacin, reference compound]
MIC [1]: 0.05 µg/mL (≈ 0.151 µM) | MIC [2]: 0.2 µg/mL (≈ 0.604 µM)
